No constants are given. Whether binding was seen depends on the method and setting. Binding seen in cells or lysates may run through a third protein. Some binding calls cover weakened binding; strength is not graded here. Tags and fused reporters may be left off the sequences shown.
Molecular target: T1, HIS-tagged Jun dimerization protein 2 (JDP2), WT (human) (UniProt Q8WYK2)
T1 sequence: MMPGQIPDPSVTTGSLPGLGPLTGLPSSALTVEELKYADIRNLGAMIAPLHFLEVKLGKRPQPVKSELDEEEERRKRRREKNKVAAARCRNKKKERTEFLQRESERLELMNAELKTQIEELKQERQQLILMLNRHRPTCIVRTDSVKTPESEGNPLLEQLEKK
Assay: pull-down; H1299 cells co-transfected with HIS-tagged JDP2 and MDM2, 48 h; whole cell lysates precipitated with Ni-beads to pull down HIS-tagged JDP2, blot with anti-MDM2

Protein sequences, listed by entry. Tags and fused reporters are not part of them.
UniProt Q00987: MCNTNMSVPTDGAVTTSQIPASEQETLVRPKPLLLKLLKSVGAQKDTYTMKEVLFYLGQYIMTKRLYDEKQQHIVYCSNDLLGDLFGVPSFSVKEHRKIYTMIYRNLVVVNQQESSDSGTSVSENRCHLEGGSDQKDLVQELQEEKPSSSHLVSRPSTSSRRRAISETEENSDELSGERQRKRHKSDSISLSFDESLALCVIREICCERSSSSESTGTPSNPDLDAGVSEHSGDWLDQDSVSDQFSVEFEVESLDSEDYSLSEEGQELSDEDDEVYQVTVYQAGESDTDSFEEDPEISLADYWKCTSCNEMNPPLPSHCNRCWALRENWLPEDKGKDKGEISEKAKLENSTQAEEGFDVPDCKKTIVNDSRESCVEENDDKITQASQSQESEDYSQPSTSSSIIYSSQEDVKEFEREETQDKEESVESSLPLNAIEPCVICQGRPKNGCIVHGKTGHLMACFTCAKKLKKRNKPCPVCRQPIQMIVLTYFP

- binding: binds
Substance: MDM2 (from UniProt Q00987 1-491)
